Assay results reported in patent US11612634B2 (priority 2020, dated 2023).
Some entries share one result that the patent states for a list of compounds.

Tested on: Carr-induced inflammatory pain rat model
Experiment: Analgesic effect on mechanical hyperalgesia (PWT) in Carr-induced inflammatory pain rat model
Assay type: in vivo
Conditions: 2 μg/kg i.d. plantar, every 2 h
Procedure: The mechanical hyperalgesia of rats was measured by 38500-pressure application measurement (PAM) system (Ugo Basile Biological Research Apparatus, Comerio-Varese, Italy), which consisted of a hand-held part and an integrated electronic part. The hand-held part was a force sensor which was designed according to a Randall-Selitto algesimeter. The integrated electronic part was configured to automatically record a maximum PWT applied to the left hind paw of the rats. […]
(S4) The PWT of the left hind paw of each rat was measured 1 h after the Carr injection. […] 1 h later, the PWT of the left hind paw of the rats in each group was measured 3-5 times at an interval of 5-10 min. […] Then the drug was injected every 2 h according to the above-mentioned administration dose and time, and the corresponding PWT was recorded (six injections in total).
(1) 24 healthy adult SD rats, weighing 180-220 g, were selected, reinjected with 6 μL of a 1 wt % Carr solution and divided into 4 groups randomly and averagely (i.e., groups A-D). […] 1 h later, the PWT of each group was recorded when the mechanical withdrawal of the left hind paw occurred, and each rat was measured 3-5 times at an interval of 5-10 min.
(2) The drug was injected every 2 h according to the above-mentioned administration dose and time (seven times in total), and the PWT was recorded. […]

Sequence: WKCNPNDDKCR [P10583, comparative short peptide, reference compound]
- duration of analgesic effect: more than 12 h
